In patent US20110172163A1, “Novel Protease Inhibitors” (QUEENSLAND UNIVERSITY OF TECHNOLOGY, priority 2008, published 2011):
At least one peptide structure holds a part that was inferred or is arguable (an end, a ring closure or a residue). Peptide text beside a SMILES is read from it. * marks the point of attachment. pNA = O=[N+]([O-])c1ccc(N*)cc1

Amino acid sequences for entries named in this document (tags omitted). Residues count along the entry.
UniProt Q9Y5K2, 31-254: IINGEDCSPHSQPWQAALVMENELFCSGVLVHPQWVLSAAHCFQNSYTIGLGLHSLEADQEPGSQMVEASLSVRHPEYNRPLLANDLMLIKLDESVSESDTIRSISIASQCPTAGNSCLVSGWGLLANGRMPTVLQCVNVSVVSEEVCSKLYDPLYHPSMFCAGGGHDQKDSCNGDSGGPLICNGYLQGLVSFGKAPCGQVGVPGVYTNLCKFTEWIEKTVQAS

Target: KLK4 (Homo sapiens, UniProt Q9Y5K2)
Assay: Kinetic studies of para-nitroanilide substrates with KLK4
Type: biochemical
Parameters: pro-region of PSA (KLK3), replacing the native KLK4 pro-region (only if the E. coli preparation was used) (N, cleaved yes); made in house
Details: relative to the parent substrate (Bz-FVR-pNA or FVQR-pNA)
Experimental: Human recombinant KLK4 was expressed in E. coli using a previously described chimeric KLK4 plasmid construct where the native pro-region was replaced with the pro-region of PSA, enabling autoactivation. Protein was expressed as inclusion bodies which were isolated and solubilised as described previously to yield 90% pure KLK4. Protein refolding was performed by dilution into 100 volumes of refolding buffer I (2 M urea, 0.1M NaCl, 5 mM GSH, 0.5 mM GSSG, 10 mM benzamidine, 50 mM tris HCl pH 8.0, 2 mM CaCl2) over 44 hours before further dilution into 3 volumes refolding buffer II (refolding buffer I with 0.5 M urea 0.5 mM GSH, 0.05 mM GSSG, 2 mM CaCl2) over another 24 hours. Dialysis was performed as previously described (with additional 2 mM CaCl2 to reduce aggregation) before concentration using UNO sphere Q (Biorad) eluting with tris buffered saline (pH 7.5)/2 mM CaCl2. […]
Kinetic Studies Active site titration was carried out according to Beynon et al., replacing α1-proteinase inhibitor with soybean trypsin inhibitor. Enzymatic activity assays were performed with 4.9 nM KLK4 and substrate concentrations in the range of 0-600 μM in 300 μL of assay buffer with hydrolysis monitored over 5 minutes as described for the substrate screen. […]

CC[C@H](C)[C@H](N)C(=O)N[C@H](C(=O)N[C@@H](CCC(N)=O)C(=O)N[C@@H](CCCNC(=N)N)C(=O)Nc1ccc([N+](=O)[O-])cc1)C(C)C [IVQR-pNA] (H-IVQR-pNA)
reduction of kcat: 87%
